A short description of this series: general procedure: solution-phase peptide synthesis; N-hydroxysuccinimide ester. The following applies: oxidative folding step, disodium salt.

In the case of “bis-(L-phenylalanyl-γ-L-glutamyl)-L-cysteinyl-bis-glycine Disodium Salt”, the oxidative folding yield was 95%.

The values are drawn from patent US7371411B2 (Novelos Therapeutics, Inc., priority 1998, dated 2008).
